These results are taken from PMC5041083.

The chains behind the UniProt entries cited, without tags or fusion partners.
UniProt P49674: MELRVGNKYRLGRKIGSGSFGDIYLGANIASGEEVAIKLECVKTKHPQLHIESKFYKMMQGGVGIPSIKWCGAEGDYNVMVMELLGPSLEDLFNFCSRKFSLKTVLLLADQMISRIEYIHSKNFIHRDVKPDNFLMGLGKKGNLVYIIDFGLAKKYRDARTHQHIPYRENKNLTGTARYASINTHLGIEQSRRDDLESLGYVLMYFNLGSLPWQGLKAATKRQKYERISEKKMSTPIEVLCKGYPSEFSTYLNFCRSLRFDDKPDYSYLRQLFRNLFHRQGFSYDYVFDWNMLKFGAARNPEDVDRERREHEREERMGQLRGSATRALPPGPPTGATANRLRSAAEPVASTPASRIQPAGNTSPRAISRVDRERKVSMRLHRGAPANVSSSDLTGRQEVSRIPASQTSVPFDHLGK

The test addresses T1, FAM83H-FLAG (UniProt Q6ZRV2).
T1 sequence: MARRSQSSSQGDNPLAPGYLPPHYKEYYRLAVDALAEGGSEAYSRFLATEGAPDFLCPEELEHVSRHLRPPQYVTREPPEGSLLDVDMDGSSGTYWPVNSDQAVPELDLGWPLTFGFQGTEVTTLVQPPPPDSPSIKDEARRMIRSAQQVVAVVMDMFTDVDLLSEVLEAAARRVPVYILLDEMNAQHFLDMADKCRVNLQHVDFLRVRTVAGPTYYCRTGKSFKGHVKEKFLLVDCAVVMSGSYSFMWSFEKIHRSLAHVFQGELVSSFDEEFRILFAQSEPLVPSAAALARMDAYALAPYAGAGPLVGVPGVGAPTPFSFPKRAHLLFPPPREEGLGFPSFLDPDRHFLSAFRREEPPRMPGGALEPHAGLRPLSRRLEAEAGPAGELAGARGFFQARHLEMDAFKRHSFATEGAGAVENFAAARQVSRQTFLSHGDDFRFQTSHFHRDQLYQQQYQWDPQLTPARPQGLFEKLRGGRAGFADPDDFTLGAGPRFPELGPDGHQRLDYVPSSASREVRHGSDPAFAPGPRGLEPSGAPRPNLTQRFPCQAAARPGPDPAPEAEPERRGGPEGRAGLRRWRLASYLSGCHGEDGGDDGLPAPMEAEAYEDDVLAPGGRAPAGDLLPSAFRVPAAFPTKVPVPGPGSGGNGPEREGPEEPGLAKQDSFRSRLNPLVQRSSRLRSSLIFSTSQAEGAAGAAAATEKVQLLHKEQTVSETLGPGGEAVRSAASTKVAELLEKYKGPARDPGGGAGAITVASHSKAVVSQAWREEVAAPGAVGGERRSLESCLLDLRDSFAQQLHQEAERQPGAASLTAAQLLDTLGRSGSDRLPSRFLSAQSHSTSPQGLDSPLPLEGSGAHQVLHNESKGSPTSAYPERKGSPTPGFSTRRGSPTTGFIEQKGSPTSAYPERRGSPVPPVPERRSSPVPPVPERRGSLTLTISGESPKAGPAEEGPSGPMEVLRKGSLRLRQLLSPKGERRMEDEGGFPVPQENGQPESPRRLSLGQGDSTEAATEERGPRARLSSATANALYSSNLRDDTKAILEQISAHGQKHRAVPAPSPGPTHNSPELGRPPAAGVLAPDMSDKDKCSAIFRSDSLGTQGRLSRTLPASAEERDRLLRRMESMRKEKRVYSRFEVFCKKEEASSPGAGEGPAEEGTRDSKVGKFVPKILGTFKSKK
Put plainly: co-IP; RKO-F3 cells stably expressing FAM83H-FLAG and RKO-C1 control cells; lysate in PBS with Triton X-100, sonicated; anti-FLAG antibody not cross-linked to Protein G Dynabeads; Western blot (Fig. 5g). In general terms: Immunoblotting shows a protein as a band on a membrane.

These are yes or no findings as the source states them, for the method shown. In cells and extracts the contact can be indirect. Some entries that bind do so weakly or less than the wild type. Sequences can lack the tags named with a protein.

As to “casein kinase 1ε (from UniProt P49674 1-416) (enzyme)”, the binding entry was “binds”.
